Values of other authors, collected in patent US20020007075A1, “Ureas of N-heterocyclic carboxylic acids and carboxylic acid isosteres” (priority 1998, published 2002).
At least one compound was matched to its structure with a doubt left.

Assays:
hair growth = settings: topical, but not oral, application
[1] = tested on: PC12 cells and sensory nervous, namely dorsal root ganglion cells (DRGs); settings: picomolar concentrations
[2] = tested on: animals with facial nerve injury or sciatic nerve lesions

| Structure (SMILES) | hair growth (hair growth) | neurite out growth [1] | functional recovery ([2]; animals with sciatic nerve lesions) | nerve regeneration ([2]; following facial nerve injury) |
| --- | --- | --- | --- | --- |
| C=CC[C@@H]1/C=C(\C)C[C@H](C)C[C@H](OC)[C@H]2O[C@@](O)(C(=O)C(=O)N3CCCC[C@H]3C(=O)O[C@H](/C(C)=C/[C@@H]3CC[C@@H](O)[C@H](OC)C3)[C@H](C)[C@@H](O)CC1=O)[C@H](C)C[C@@H]2OC [FK506] | stimulates hair growth in a dose-dependent manner | stimulate neurite out growth | results in functional recovery | stimulate nerve regeneration |
| CO[C@H]1C[C@@H]2CC[C@@H](C)[C@@](O)(O2)C(=O)C(=O)N2CCCC[C@H]2C(=O)O[C@H]([C@H](C)C[C@@H]2CC[C@@H](O)[C@H](OC)C2)CC(=O)[C@H](C)/C=C(\C)[C@@H](O)[C@@H](OC)C(=O)[C@H](C)C[C@H](C)/C=C/C=C/C=C/1C [rapamycin] |  | stimulate neurite out growth |  |  |
